# Experimental data from the supplement of paper PMC7666118.
# Some of the results follow.
# Legend:
# VKORC1 = VKORC1 (UniProt Q9BQB6); experiment: dose-dependent thermal stabilisation call (2D-TPP, DLPTP, 10% FDR) (binary (1 = stabilised)); higher = stabilised by the compound; conditions: system: HL-60 intact cells; concentration range 0.04-10 µM
# VKORC1L1 = molecular target: T1, VKORC1L1 (UniProt Q8N0U8); experiment: as above; conditions: system: HL-60 intact cells; concentration range 0.04-10 µM
# T1 sequence (whole entry): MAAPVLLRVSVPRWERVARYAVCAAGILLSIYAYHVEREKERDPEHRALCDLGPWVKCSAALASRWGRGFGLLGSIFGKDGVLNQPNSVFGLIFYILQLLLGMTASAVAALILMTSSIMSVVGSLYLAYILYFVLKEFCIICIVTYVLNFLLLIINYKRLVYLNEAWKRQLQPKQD
compound,measurement,setting,value
COc1ccc(Cn2ccc3ccc(C(=O)NO)cc32)cc1,dose-dependent thermal stabilisation call,VKORC1,inactive: 0
same,dose-dependent thermal stabilisation call,VKORC1L1,inactive: 0
